This is an account of results in article PMC7083940.

By UniProt entry, the sequences of proteins in these tests, tags left out. Where a name states a change or a piece, a line headed by the entry shows the natural chain unless it says otherwise.
UniProt Q8NQL2: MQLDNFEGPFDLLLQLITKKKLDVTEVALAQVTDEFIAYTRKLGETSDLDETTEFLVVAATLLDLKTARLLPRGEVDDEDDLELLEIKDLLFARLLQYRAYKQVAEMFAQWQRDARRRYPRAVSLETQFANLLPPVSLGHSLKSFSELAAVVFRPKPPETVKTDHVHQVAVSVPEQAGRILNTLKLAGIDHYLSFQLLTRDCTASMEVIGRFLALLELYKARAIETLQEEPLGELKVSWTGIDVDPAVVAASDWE
UniProt Q8NQK9: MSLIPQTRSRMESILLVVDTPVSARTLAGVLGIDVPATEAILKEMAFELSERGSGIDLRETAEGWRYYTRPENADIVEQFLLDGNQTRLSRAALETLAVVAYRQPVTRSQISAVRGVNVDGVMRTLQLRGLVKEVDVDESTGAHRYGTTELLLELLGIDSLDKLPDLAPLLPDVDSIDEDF

Results are given in words; binding and its absence hold for the method and conditions named. Binding seen in cells or lysates may run through a third protein. A yes stands for co-enrichment or nearness to the bait. Other partners may have been found. A no says only that the protein was not detected with the bait.

The target in this test is T1, SMC-mCherry (Corynebacterium glutamicum) (UniProt Q8NNW5).
T1 sequence: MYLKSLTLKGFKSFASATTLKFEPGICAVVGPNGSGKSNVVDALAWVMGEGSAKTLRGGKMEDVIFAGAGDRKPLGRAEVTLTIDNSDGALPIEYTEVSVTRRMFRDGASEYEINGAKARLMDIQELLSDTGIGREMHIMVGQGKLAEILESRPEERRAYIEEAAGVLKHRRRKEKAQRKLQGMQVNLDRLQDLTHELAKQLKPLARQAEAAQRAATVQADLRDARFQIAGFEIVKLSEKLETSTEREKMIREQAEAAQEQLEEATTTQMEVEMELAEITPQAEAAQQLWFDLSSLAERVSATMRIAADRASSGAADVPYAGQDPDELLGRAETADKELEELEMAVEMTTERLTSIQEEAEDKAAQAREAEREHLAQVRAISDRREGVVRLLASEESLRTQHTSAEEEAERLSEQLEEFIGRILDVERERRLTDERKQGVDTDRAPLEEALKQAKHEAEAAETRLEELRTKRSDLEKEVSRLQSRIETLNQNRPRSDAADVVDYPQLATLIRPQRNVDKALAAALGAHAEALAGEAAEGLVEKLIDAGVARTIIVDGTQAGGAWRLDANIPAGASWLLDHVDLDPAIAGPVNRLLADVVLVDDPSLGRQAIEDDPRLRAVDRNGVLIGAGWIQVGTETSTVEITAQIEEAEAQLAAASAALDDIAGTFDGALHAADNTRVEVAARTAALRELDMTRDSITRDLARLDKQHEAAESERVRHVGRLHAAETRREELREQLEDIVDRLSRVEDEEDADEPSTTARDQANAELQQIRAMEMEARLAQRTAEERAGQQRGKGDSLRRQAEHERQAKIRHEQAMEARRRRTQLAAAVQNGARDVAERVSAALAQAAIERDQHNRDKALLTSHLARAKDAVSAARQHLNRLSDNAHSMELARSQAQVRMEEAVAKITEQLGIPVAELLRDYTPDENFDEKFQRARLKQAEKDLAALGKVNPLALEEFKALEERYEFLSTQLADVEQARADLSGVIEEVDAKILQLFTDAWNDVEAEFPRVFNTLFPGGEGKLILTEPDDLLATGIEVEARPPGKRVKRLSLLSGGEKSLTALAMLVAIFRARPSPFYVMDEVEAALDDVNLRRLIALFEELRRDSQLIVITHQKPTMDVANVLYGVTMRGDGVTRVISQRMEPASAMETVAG
The experiment in a line: affinity purification with mass spectrometry; anti-mCherry pulldown with magnetic RFP-Trap agarose beads, 1 h in lysate of exponentially grown C. glutamicum, 4 °C, washing buffer 10 mM Tris-HCl pH 7.5, 150 mM NaCl, 0.5 mM EDTA; LC-MS/MS; free mCherry strain CBK052 as negative control.
For the substance ParB, endogenous, the binding result is reported as “no binding”.
The same measure for “ScpA (kleisin subunit), endogenous (from UniProt Q8NQL2)”: “binds”; for ScpB, endogenous (from UniProt Q8NQK9): “binds”.
